Assay results: PubChem BioAssay AID504467 (National Center for Advancing Translational Sciences (NCATS), 2011)
Among all 330,000 compounds or so, about 7,700 (2.3%) were called active. The shares of active, inactive and inconclusive entries below differ from those in the screen. The call rests on the fitted dose curve; in most records, active means well fitted inhibition curve with a large enough effect; inconclusive means small, poorly fitted or top-dose-only effect, or effect the other way; inactive means flat fitted curve, though single readings scatter. Potencies of inconclusive entries are doubtful fits and often do not repeat.

Assay: qHTS screen for small molecules that inhibit ELG1-dependent DNA repair in human embryonic kidney (HEK293T) cells expressing luciferase-tagged ELG1; further: nearly all actives have a fitted effect of over 55% in size
Details: HEK293T ELG1-luciferase reporter, luminescence, 16 h, DNA damage induced by 5-fluorouridine; series mostly up to 46.1 µM
Outline: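 Overnight (16 hr) co-exposure of 2,000 cells/well to 5-fluorouridine and compound at 37 °C preceded detection. Luciferase was quantified via ONE-Glo luminescence; loss of signal denotes inhibition.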
Potency means the concentration at half of the fitted maximal effect.

Row | SMILES | Potency
1 | CN(CC(=O)Nc1ccc(F)cc1)C(=O)Cn1cnc2ccc(Cl)cc2c1=O | inactive
2 | CN(C)CCNc1nc2c(c(=O)[nH]c(=O)n2C)n1CCOc1ccccc1 | inconclusive: 9.2 µM [inhibitor, partial curve]
3 | COc1ccc(-c2csc(N3CCSCC3)n2)cc1 | inconclusive: 23.1 µM [activator, partial curve]
4 | Cc1[nH]c2ccc(F)cc2c1CCN(Cc1ccncc1)C(=S)Nc1ccc(F)cc1 | inconclusive: 29.1 µM [inhibitor, single point]
5 | CC(C)[C@H](CO)Nc1nc(NCc2ccc(S(N)(=O)=O)cc2)c2ncn(C(C)C)c2n1 | inconclusive: 29.1 µM [inhibitor, single point]
6 | O=[N+]([O-])c1ccc(COc2cccc(CNc3ccc(Br)cc3)c2)cc1 | inconclusive: 6.51 µM [activator, partial curve, poor fit]
7 | CC(C)OC(=O)CSc1nc2ccccc2s1 | inconclusive: 18.4 µM [activator, single point]
8 | O=C(C1=C(O)C(=O)N(CCc2ccccc2)C1c1ccncc1)c1cc2ccccc2o1 (stereo not given) | inconclusive: 0.651 µM [inhibitor, single point]
9 | COC(=O)c1ccc(CSc2nc3ccc(S(N)(=O)=O)cc3[nH]2)cc1 | inconclusive: 16.4 µM [activator, partial curve, poor fit]
10 | N=c1ccn(Cc2ccc(Cl)cc2)cc1 | active: 5.17 µM
11 | CC(=O)Nc1ccc(S(=O)(=O)N(C)S(=O)(=O)c2ccc(F)cc2)cc1 | inconclusive: 23.1 µM [inhibitor, single point]
12 | CN1CCN(C2=C(Cl)C(=O)N(c3ccc(Cl)c(Cl)c3)C2=O)CC1 | inactive
13 | CCOC(=O)c1c(NC(=O)CSc2nncn2C)sc(C)c1C | inconclusive: 29.1 µM [inhibitor, single point]
14 | Cc1ccc(CNC(=O)c2ccc(Cl)c(S(=O)(=O)N3CCCCC3)c2)cc1 | inconclusive: 29.1 µM [inhibitor, single point]
15 | CCOc1ccc(S(=O)(=O)N2CCC(C(=O)NCc3ccccc3CN3CCCC3)CC2)cc1 | inactive
16 | COC(=O)Cc1c(C)nc2nc(-c3ccc(C)cc3)[nH]n2c1=O | inconclusive: 29.1 µM [activator, single point]
17 | COc1ccc(NC(=S)N(CCc2c(C)[nH]c3ccc(C)cc23)Cc2cccs2)cc1 | inconclusive: 23.1 µM [inhibitor, partial curve, poor fit]
18 | CCOc1ccc(OCC)c(Nc2cc(C)nc3ncnn23)c1 | inconclusive: 20.6 µM [activator, partial curve]
19 | COc1ccc(-c2cc(C(=O)N(C)CC(=O)Nc3cccc(F)c3)c3ccccc3n2)cc1 | inconclusive: 14.6 µM [inhibitor, partial curve, poor fit]
20 | O=C(O)CSC1CC(=O)N(c2cccc(Cl)c2)C1=O (stereo not given) | inactive
21 | CN(/N=C/c1cccc(Br)c1)C1=NS(=O)(=O)c2ccccc21 | inconclusive: 14.6 µM [inhibitor, partial curve]
22 | CCCCOc1ccc(NC(=O)c2cnc(C)cn2)cc1 | inconclusive: 5.8 µM [activator, partial curve, poor fit]

Some values from the entries so far.
Potency, `O=[N+]([O-])c1ccc(COc2cccc(CNc3ccc(Br)cc3)c2)cc1` is entered as inconclusive: 6.51 µM [activator, partial curve, poor fit]
Potency, `COC(=O)Cc1c(C)nc2nc(-c3ccc(C)cc3)[nH]n2c1=O` is entered as inconclusive: 29.1 µM [activator, single point]

Further results

Row | SMILES | Potency
23 | CCOC(=O)c1c(C)[nH]c(C)c1S(=O)(=O)NC(CC)CN1CCOCC1 (stereo not given) | inactive
24 | Cc1cc(C)c2nc(NC(=O)c3cc(C)on3)sc2c1 | inconclusive: 18.4 µM [activator, single point]
25 | Cc1nn(-c2ccc(F)cc2)c(C)c1NS(=O)(=O)c1ccc2ccccc2c1 | inconclusive: 35.5 µM [inhibitor, partial curve, poor fit]
26 | CCCCNS(=O)(=O)c1ccc2nc(SCC(=O)Nc3ccccc3Cl)[nH]c2c1 | inconclusive: 29.1 µM [inhibitor, single point]
27 | CSc1ncccc1C(=O)OCC(=O)NC(C)(C)C | inactive
28 | CCOC(=O)c1c(C)[nH]c(C(=O)OC(C)C(=O)NCc2ccccc2)c1C (stereo not given) | inactive
29 | Cc1ccc(C)c(OCc2cc(C(=O)N3CCN(c4ccccc4)CC3)no2)c1 | inconclusive: 14.6 µM [activator, partial curve]
30 | Cc1ccc(/C=C/C(=O)Nc2ncc(C)s2)o1 | inconclusive: 2.31 µM [activator, full curve]
31 | O=C(c1ccc(Cl)c(S(=O)(=O)N2CCc3ccccc32)c1)N1CCN(c2ccccc2O)CC1 | inconclusive: 20.6 µM [inhibitor, single point]
32 | S=C(NCCC1=CCCCC1)Nc1ccccc1 | inconclusive: 16.4 µM [activator, partial curve]
33 | Cc1cccc(NC(=O)c2ccc(NC(=O)CC3SC(N4CCCC4)=NC3=O)cc2)n1 (stereo not given) | inconclusive: 29.1 µM [inhibitor, single point]
34 | COc1ccc(S(=O)(=O)Cc2ccc(C(=O)NC3CCC(C)CC3)o2)cc1 (stereo not given) | inactive
35 | COc1ccc(C2=NOC(COc3ccc4c(C)cc(=O)oc4c3)C2)c(OC)c1 (stereo not given) | inconclusive: 2.06 µM [inhibitor, partial curve, poor fit]
36 | COc1cc(/C=C2/C(=N)N3N=C(CC(=O)N4CCOCC4)SC3=NC2=O)ccc1OCc1ccc(F)cc1 | inconclusive: 18.3 µM [activator, partial curve]
37 | COc1ccccc1C(=O)NC(=O)COC(=O)C1CC1 | inconclusive: 6.31 µM [activator, full curve]
38 | COc1ccc(NC(=O)Cn2c(-c3ccccc3)cn(-c3ccc(C)cc3)c2=O)cc1 | inconclusive: 14.6 µM [inhibitor, partial curve]
39 | C=CCn1c(SCC(=O)c2c(N)n(C)c(=O)n(C)c2=O)nc2sc(C)c(C)c2c1=O | inconclusive: 1.64 µM [activator, partial curve, poor fit]
40 | C#CCSc1nnc(-c2ccc(C)cc2)o1 | inconclusive: 8.2 µM [activator, partial curve]
41 | Cc1cc(C(=O)COC(=O)[C@H](C)NC(=O)c2ccco2)c(C)n1Cc1ccco1 | inconclusive: 32.6 µM [activator, partial curve, poor fit]
42 | CC(C)NC(=O)c1ccc(N(Cc2ccccc2)S(C)(=O)=O)cc1 | inactive
43 | COc1cccc(OCC(O)CNC(=O)c2oc3c(C)c(C)ccc3c2C)c1 (stereo not given) | inconclusive: 29.1 µM [inhibitor, single point]
44 | COc1ccc(OC)c(C2C(C(=O)N(C)C)=C(C)Nc3nc4ccccc4n32)c1 (stereo not given) | inactive

Row | SMILES | Potency
45 | CC1(OC(=O)C2CCCC2)C(=O)C=C2C=C(c3ccsc3)N(Cc3ccc4c(c3)OCO4)C=C2C1=O (stereo not given) | inconclusive: 20.6 µM [inhibitor, partial curve, poor fit]
46 | CCN(Cc1ccccc1)C(c1cc2ccc(C)cc2[nH]c1=O)c1nnnn1CCOC (stereo not given) | inactive
47 | CCOC(=O)c1sc2c(c1C)C(c1cccs1)C1=C(CCCC1=O)N2 (stereo not given) | inconclusive: 29.1 µM [inhibitor, single point]
48 | CC1(C)CC(=O)C=C(c2cccc3c2sc2ccccc23)C1 | inconclusive: 10.3 µM [activator, partial curve, poor fit]
49 | COc1ccc(N(C)S(=O)(=O)c2cccc(C(=O)OC(C(=O)Nc3cc(C)cc(C)c3)c3ccccc3)c2)cc1 (stereo not given) | inactive
50 | c1cc(-c2cc3cc4c(cc3cn2)OCO4)cs1 | inconclusive: 9.2 µM [activator, partial curve]
51 | COc1cccc(/C=N/N2CCN(C3c4ccccc4-c4ccccc43)CC2)c1O | inconclusive: 25.9 µM [inhibitor, single point]
52 | O=C(/C=N/O)NCCCN1CCOCC1 | inconclusive: 20.6 µM [activator, partial curve, poor fit]
53 | Cc1cc(C)cc(N(CC(=O)NC(C)(C)C)C(=O)CNC(=O)c2cccs2)c1 | inconclusive: 29.1 µM [inhibitor, single point]
54 | CCOC(=O)C1CCCN(Cc2ccc(OCc3ccccc3)cc2)C1 (stereo not given) | inconclusive: 18.3 µM [activator, single point]
55 | O=C(Nc1nnc(-c2ccco2)s1)C1CCCCC1 | inconclusive: 3.66 µM [activator, full curve]
56 | N/C(=N\OC(=O)C1CCCCC1)c1ccc(Cl)cc1 | inconclusive: 20.6 µM [activator, single point]
57 | CC(C)CC(COCc1ccc([N+](=O)[O-])cc1)N1CCN(C(=O)c2ccc(C(F)(F)F)cc2)CCC1=O (stereo not given) | inconclusive: 20.6 µM [inhibitor, single point]
58 | O=C(NN/C(=N/S(=O)(=O)c1ccc(Cl)cc1)c1ccccc1)c1cccc(Cl)c1 | inconclusive: 11.6 µM [activator, partial curve]
59 | COc1ccccc1N(CC(=O)N/N=C/c1ccc(C(=O)O)cc1)S(=O)(=O)c1ccc(C)cc1 | inactive
60 | CCOCCCNC(=O)CSc1nc2nc(C)c(Cc3ccccc3)c(C)n2n1 | inactive
61 | O=C1OCCN1CCNCc1cn(-c2ccc(F)cc2)nc1-c1ccccc1Cl | inconclusive: 29.1 µM [inhibitor, single point]
62 | O=C(Cc1ccc(F)cc1)N1CCN=C1SCc1cccc([N+](=O)[O-])c1 | inconclusive: 20.6 µM [inhibitor, single point]
63 | NNc1ccc(S(=O)(=O)N2CCCCC2)cn1 | inactive
64 | C/C(=N\Nc1ccccc1C(=O)O)c1ccncc1 | inconclusive: 20.6 µM [activator, partial curve]
65 | COc1cc(OC)c(OC)cc1CNC(=O)CCN1C(=O)c2cccc([N+](=O)[O-])c2C1=O | inactive
